Drawing on paper PMC6615629, “Hsp70-nucleotide exchange factor (NEF) Fes1 has non-NEF roles in degradation of gluconeogenic enzymes and cell wall integrity” (PLoS Genetics, 2019), this text covers binding for 1 substance.

Sequences of proteins named here, by UniProt entry; tags and fusion partners are left off.
UniProt P10591: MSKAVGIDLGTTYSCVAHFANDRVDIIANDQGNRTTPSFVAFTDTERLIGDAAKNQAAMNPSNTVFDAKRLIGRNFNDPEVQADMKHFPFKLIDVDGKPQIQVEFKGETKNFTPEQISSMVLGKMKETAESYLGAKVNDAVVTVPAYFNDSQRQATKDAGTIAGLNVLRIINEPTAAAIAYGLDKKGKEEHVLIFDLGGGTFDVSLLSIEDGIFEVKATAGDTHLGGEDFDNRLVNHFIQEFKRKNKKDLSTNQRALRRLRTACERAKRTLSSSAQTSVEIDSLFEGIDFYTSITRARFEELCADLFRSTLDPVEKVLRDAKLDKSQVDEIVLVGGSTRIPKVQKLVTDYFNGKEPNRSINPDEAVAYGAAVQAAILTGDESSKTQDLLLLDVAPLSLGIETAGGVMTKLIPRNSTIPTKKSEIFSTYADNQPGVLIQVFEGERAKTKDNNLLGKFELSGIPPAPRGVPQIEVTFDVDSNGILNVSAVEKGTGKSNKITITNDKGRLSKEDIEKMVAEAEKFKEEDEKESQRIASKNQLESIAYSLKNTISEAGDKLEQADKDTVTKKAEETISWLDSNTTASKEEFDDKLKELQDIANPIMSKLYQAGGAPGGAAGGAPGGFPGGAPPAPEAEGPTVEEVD

In this assay the target is T1, GST-Fes1^A79R,R195A (yeast (S. cerevisiae)) (UniProt P38260).
T1 sequence: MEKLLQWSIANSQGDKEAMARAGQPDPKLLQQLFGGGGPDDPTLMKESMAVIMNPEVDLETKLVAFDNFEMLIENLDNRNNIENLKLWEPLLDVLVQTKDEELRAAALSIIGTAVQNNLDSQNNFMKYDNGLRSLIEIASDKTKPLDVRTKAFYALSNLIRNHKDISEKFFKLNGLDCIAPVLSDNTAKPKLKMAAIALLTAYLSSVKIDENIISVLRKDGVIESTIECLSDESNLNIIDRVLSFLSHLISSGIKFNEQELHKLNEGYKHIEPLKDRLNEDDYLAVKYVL
Kind of assay: pull-down; GST-Fes1 (wild type or mutant, or GST alone) pulled down on glutathione resin; reactions with two or all three proteins; 6 μg each of His6-Fbp1 (1.6 μM), Hsp70 (0.9 μM) and GST-Fes1 (1.09 μM), with or without ATP, ADP or AMP (2.5 mM); 50 mM Tris-HCl pH 7.5, 150 mM NaCl, 2% glycerol, 5 mM MgCl2; 30 min at 4°C; stained SDS-PAGE gels; both purified.

Results are given in words; binding and its absence hold for the method and conditions named. Where a sequence is shown, tags or fusion partners need not be part of it.

Ssa1 (from UniProt P10591 1-642): the binding result is “no binding (tested: Hsp70 0.9 μM, GST-Fes1 1.09 μM)”.
